Experimental findings from PubChem BioAssay AID2685 (National Center for Advancing Translational Sciences (NCATS), 2010) are described below.

The other results are listed elsewhere or left out. The main result of the screen is listed elsewhere. These columns were measured beside it and carry no call. The list favours compounds with an active or inconclusive main result. The note in brackets gives the kind of curve behind each potency; many fits are weak.

A short description of this test: qHTS Assay for Lipid Storage Modulators in Drosophila S3 Cells.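 As to cell number change: cells counted by Cell Tracker Red CMTPX staining in the red channel.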 As to conditions: BODIPY lipid droplet fluorescence, 18-24 h; for cell number change: measured here: cell count max response, cells fed with added oleic acid. In short, it runs like this: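 Laser-scanning cytometry quantifies lipid droplet accumulation (500–530 nm total intensity; droplet/cell object ratio) in oleic acid-fed (400 uM added) Drosophila S3 cells treated with a concentration series. 20 uM Triacsin C defined 100% inhibition.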

[1] abbreviates: measured here: cell number channel AC50, cells fed with added oleic acid.
The mark [2] stands for this setting: measured here: lipid fluorescence (Fed channel) AC50, cells fed with added oleic acid.

What is called AC50 is the midpoint of the concentration-response curve, whichever way the signal moves.

With `O=C(O)c1ccccc1NC(=S)NC(NC(=O)c1ccccc1[N+](=O)[O-])C(Cl)(Cl)Cl` (stereo not given), the cell number change is -25%. In addition, under setting [1], the half-maximal activity concentration (AC50) is 0.326 µM [falling, full curve, poor fit].

Consider `CN(c1ccccc1)S(=O)(=O)c1ccc(Cl)c(C(=O)Nc2nn[nH]n2)c1`, for which the cell number change is -67.6%. The half-maximal activity concentration (AC50) under setting [1] was 8.2 µM [falling, partial curve].

For the compound `CCOc1ccc(NC(=O)CN2CCN(CC(=O)Nc3ccc(C(=O)OC)cc3)CC2)cc1`, the cell number change worked out at 62.2%. The AC50 under setting [2] is 16.4 µM [rising, partial curve].

Regarding `COCCCNc1nc2c(c(=O)n(Cc3ccc(Cl)cc3)c(=O)n2C)n1C`, the cell number change was -25%. Also, under setting [2], the AC50 was 7.31 µM [falling, partial curve].

Consider `CN(C)CCCOc1ccc(C(C)(C)c2ccccc2)cc1`, for which the cell number change was -45.9%. In addition, the AC50 under setting [1] was 0.731 µM [falling, full curve, poor fit]. Besides, the AC50 under setting [2] was 0.731 µM [falling, full curve].

Turning to `COc1cccc(CNc2ccc(S(N)(=O)=O)cc2)c1OC`, the cell number change was -9.64%. The AC50 under setting [1] is 0.184 µM [falling, partial curve, poor fit]. The concentration at half-maximal activity (AC50) under setting [2] was 0.0206 µM [falling, full curve].

`CN1CCN(C(=O)c2ccc3c(c2)NC(=O)C(C)(C)O3)CC1`: the cell number change is -41.4%. Further, under setting [1], the AC50 is 1.03 µM [falling, full curve]. The AC50 under setting [2] was 1.3 µM [falling, full curve].

Consider `COc1ccc(CNc2nc3ccc(C)cc3s2)c(OC)c1OC`, for which the cell number change is -23.8%. The half-maximal activity concentration (AC50) under setting [2] is 29.1 µM [falling, single point].

Regarding `Cc1ccc(C)c(S(=O)(=O)NC(C)C(=O)NCc2ccccn2)c1` (stereo not given), the cell number change was -7.33%. For the same compound, the half-maximal activity concentration (AC50) under setting [2] is 0.58 µM [falling, single point].

As to `O=C(O)Cn1ccc2cc(S(=O)(=O)N3CCCCCC3)ccc21`, the cell number change was found to be 6.46%. Further, the concentration at half-maximal activity (AC50) under setting [1] is 0.58 µM [rising, single point].

Regarding `CC1=C(C#N)C(=O)NC(=O)/C1=C\c1ccc(-c2ccc(C)cc2[N+](=O)[O-])o1`, the cell number change was 25.1%. Under setting [1], the AC50 is 6.51 µM [rising, single point].

With `CCC(c1nnnn1CCOC)N1CCN(Cc2ccccc2OC)CC1` (stereo not given), the cell number change came to 16.7%.

Turning to `Cc1ccc(C(=O)CCC(=O)NNC(=O)c2ccccc2O)cc1`, the cell number change was -16.3%.

Take `CCOCC(=O)Nc1cccc(SC)c1`: the cell number change came out at 6.55%.

For `Cc1ccc(C(C)C)c(OCC(=O)Nc2ccc(Cl)cn2)c1`, the cell number change is -47.7%. In addition, under setting [1], the AC50 was 29.1 µM [falling, single point].

For the compound `NS(=O)(=O)c1ccc(-c2ccc(/C=C3\SC(=S)N(C4CCS(=O)(=O)C4)C3=O)o2)cc1` (stereo not given), the cell number change is -17.1%.

As to `COc1ccc(OC)c(S(=O)(=O)N2CCC(C(=O)NC3CCCCC3)CC2)c1`, the cell number change stood at 4.62%. Besides, the AC50 under setting [2] is 29.1 µM [rising, single point].

Turning to `O=C(Nc1cccc(Cl)c1)ON=C1c2ccccc2-c2ccccc21`, the cell number change was -29.3%. The AC50 under setting [1] was 0.651 µM [rising, full curve]. For the same compound, the half-maximal activity concentration (AC50) under setting [2] is 25.9 µM [falling, partial curve, poor fit].

As for `CCN(CC(=O)Nc1c(F)cccc1F)C(=O)CCCc1nc2ccccc2c(=O)[nH]1`, the cell number change was -5.05%. Moreover, the half-maximal activity concentration (AC50) under setting [2] was 29.1 µM [rising, single point].

As for `O=C(NCCOC(=O)c1ccc(Cl)cc1)c1cccnc1`, the cell number change was 12.2%. For the same compound, under setting [2], the concentration at half-maximal activity (AC50) is 11.6 µM [rising, single point].

In the case of `Clc1ccc(-c2nn3c(-c4ccncc4)nnc3s2)c(Cl)c1`, the cell number change was -4.91%. Under setting [2], the half-maximal activity concentration (AC50) was 0.00517 µM [rising, full curve, poor fit].

With `O=C(NCC(=O)N1CCN(c2ccccc2O)CC1)c1ccc(Br)o1`, the cell number change was determined as 31%. Further, under setting [1], the AC50 was 11.6 µM [rising, single point]. In addition, the half-maximal activity concentration (AC50) under setting [2] is 23.1 µM [rising, partial curve, poor fit].

For `Nc1nnc(CCOc2ccc(Cl)cc2)s1`, the cell number change was found to be 27.9%.

In the case of `COc1cc(/C=N/Nc2ccc(C(F)(F)F)cn2)ccc1O`, the cell number change was -2.28%.

As to `CCCC(=O)Nc1ccc2oc(-c3ccncc3)nc2c1`, the cell number change is -39.2%. The concentration at half-maximal activity (AC50) under setting [1] was 29.1 µM [falling, single point]. For the same compound, under setting [2], the half-maximal activity concentration (AC50) is 0.103 µM [falling, full curve, poor fit].

As to `Cc1c(NC(=O)COC(=O)c2ccc(Br)o2)c(=O)n(-c2ccccc2)n1C`, the cell number change is -10.3%. Moreover, the concentration at half-maximal activity (AC50) under setting [1] is 1.46 µM [rising, single point]. In addition, the AC50 under setting [2] was 0.58 µM [rising, partial curve].

Consider `CCOC(=O)c1c(N2C(=O)C3CC(C)=C(C)CC3C2=O)sc(C)c1C` (stereo not given), for which the cell number change is -2.58%. For the same compound, the AC50 under setting [2] was 2.06 µM [rising, partial curve].

For the compound `Cc1nn(C(=O)N(C)C)c(C)c1CN1C(=O)c2ccccc2C1=O`, the cell number change stood at 0.549%.

Regarding `Cc1nc(-n2[nH]c3c(c2=O)CCCC3)[nH]c(=O)c1Cc1ccccc1`, the cell number change is -27.5%. The half-maximal activity concentration (AC50) under setting [2] is 20.6 µM [falling, single point].

As to `CCOC(=O)c1ccc(-n2[nH]c(-c3ccccc3)cc2=O)cc1`, the AC50 under setting [1] was 0.461 µM [falling, full curve, poor fit] and the concentration at half-maximal activity (AC50) under setting [2] was 6.51 µM [falling, single point].

`CCOC(=O)C(C)c1c(C(=O)c2ccc(C)nc2)c2ccccc2n1C` (stereo not given): the cell number change was found to be 6.2%. In addition, the AC50 under setting [2] is 6.51 µM [falling, single point].

On to `CCOc1cc(N2CCOCC2)c(OCC)cc1NC(=O)CN1C(=O)NC2(CCCCC2C)C1=O` (stereo not given), for which the cell number change stood at 3.21%.

As to `Cc1ccc(-c2nc(N)n(C(=O)Cc3ccccc3)n2)cc1`, the cell number change was -6.56%. Further, under setting [2], the AC50 was 5.8 µM [rising, single point].

As to `O=C(CCCOc1ccc(Cl)cc1)Nc1nncs1`, the cell number change was determined as 41.1%. Also, the AC50 under setting [1] is 3.66 µM [rising, partial curve]. Further, under setting [2], the half-maximal activity concentration (AC50) was 29.1 µM [rising, single point].

For the compound `CC1CCCC(NC(=O)C2CCC(CNc3c(N4CCCCC4)c(=O)c3=O)CC2)C1C` (stereo not given), the cell number change is -13.1%.

`Cc1cc(NC(=O)COC(=O)COc2ccc3c(c2)CCC3)no1`: the cell number change is -4.76%. For the same compound, the half-maximal activity concentration (AC50) under setting [2] was 6.51 µM [falling, single point].

For the compound `Cc1nc(NC(=O)c2ccccc2)sc1-c1csc(NCc2ccccc2)n1`, the cell number change was -39.9%.

Turning to `O=C(NCCC1CCCCN1S(=O)(=O)c1ccccc1)C(=O)NCc1ccccc1F` (stereo not given), the cell number change stood at 3.28%.

As for `CCc1ccc(S(=O)(=O)Nc2cc3c(cc2N2CCCCC2)n(C)c(=O)c(=O)n3C)cc1`, the cell number change was determined as 7.03%.

Take `CC1CCCCN1c1nnc(N)s1` (stereo not given): the AC50 under setting [2] is 0.103 µM [falling, full curve, poor fit].

`COc1cc(NC(=O)C2CCCN(S(=O)(=O)c3cccc4nsnc34)C2)cc(OC)c1` (stereo not given): the cell number change is -30.8%. In addition, under setting [2], the AC50 was 32.6 µM [rising, single point].

As to `Cc1nc(N2CCN(c3ccccn3)CC2)c2c(C)c(C(=O)Nc3c(C)cc(Br)cc3C)sc2n1`, the cell number change is 54%. Under setting [1], the AC50 was 29.1 µM [rising, single point]. The AC50 under setting [2] was 2.91 µM [rising, single point].

For `O=C(CSc1ccc2c(c1)OCCO2)Nc1ncc(Cl)cc1Cl`, the cell number change was 35.7%.

For `COc1cc(CN2CCCC(CO)(Cc3ccccc3)C2)ccc1O` (stereo not given), the cell number change was 15.2%. Also, under setting [2], the AC50 was 29.1 µM [falling, single point].

With `CCCCCCOC(=O)Sc1nc2ccccc2o1`, the cell number change was -4.45%. Moreover, the half-maximal activity concentration (AC50) under setting [2] was 10.3 µM [falling, partial curve].

Consider `CC(=O)N(/N=C/c1cccc(C)c1)c1nc(-c2ccc(Br)cc2)cs1`, for which the cell number change is -19.2%. The concentration at half-maximal activity (AC50) under setting [2] is 3.26 µM [falling, full curve, poor fit].

On to `O=C(Nc1cccnc1Cl)c1cccc(F)c1`, for which the cell number change was -38.5%.

`Cc1cccc2nc(-c3cccnc3)c(NCCC(C)C)n12`: the cell number change was -24.7%. Besides, the AC50 under setting [2] is 20.6 µM [falling, single point].

`O=C(COC(=O)CCNS(=O)(=O)c1ccc2c(c1)OCCO2)NC1CCCc2ccccc21` (stereo not given): the cell number change was -5.86%.

As to `COc1cc(C(=O)NC(=S)Nc2cccc3nc(C)ccc23)cc(OC)c1OC`, the cell number change was -23.9%. Moreover, under setting [1], the AC50 is 1.16 µM [falling, full curve, poor fit].

As to `Cc1ccc(OP(=O)(Nc2c(C)n(C)n(-c3ccccc3)c2=O)Oc2ccc(C)cc2)cc1`, the cell number change was -65.7%. For the same compound, the AC50 under setting [1] is 25.9 µM [falling, partial curve, poor fit]. For the same compound, the AC50 under setting [2] is 0.82 µM [falling, full curve, poor fit].

As to `O=C(CSc1ccc2c(c1)OCCO2)NCc1ccco1`, the cell number change was -91.6%. For the same compound, under setting [1], the half-maximal activity concentration (AC50) is 18.4 µM [falling, single point].

For the compound `O=C(CN1CCc2ccccc2C1)Nc1cccc(S(=O)(=O)N2CCCC2)c1`, the AC50 under setting [2] was 0.731 µM [falling, single point].

For the compound `NC(=O)c1ccc(C23CC4CC(CC(C4)C2)C3)o1`, the cell number change was -36.2%. Besides, the half-maximal activity concentration (AC50) under setting [1] was 5.8 µM [falling, full curve]. Moreover, under setting [2], the concentration at half-maximal activity (AC50) is 1.64 µM [falling, full curve].

For `CS(=O)(=O)N(CC(=O)Nc1ccc2c(c1)OCCO2)c1ccc2c(c1)OCO2`, the concentration at half-maximal activity (AC50) under setting [1] was 0.58 µM [rising, single point] and the AC50 under setting [2] is 0.58 µM [rising, single point].

In the case of `Cc1ccc(S(=O)(=O)Nc2c(C(=O)O)[nH]c3ccccc23)cc1C`, the cell number change turned out to be 8.33%.

For `Cc1cc(C(=O)CSc2nnc(-c3ccco3)o2)c(C)n1CC1COc2ccccc2O1` (stereo not given), the cell number change is -16%. Further, under setting [2], the AC50 is 0.00461 µM [rising, full curve, poor fit].

`O=C(O)c1csc(-c2ccccc2)n1`: the cell number change was -7.1%. In addition, the AC50 under setting [2] was 3.26 µM [falling, single point].

Regarding `Cn1c2ccccc2c2nnc(SCc3nnc(-c4ccccc4)o3)nc21`, the cell number change amounted to 39.8%. Besides, the half-maximal activity concentration (AC50) under setting [1] was 29.1 µM [rising, single point]. Besides, the half-maximal activity concentration (AC50) under setting [2] was 2.31 µM [rising, partial curve, poor fit].

Turning to `CC(=O)C1=C(C)NC(=O)NC1c1cccs1` (stereo not given), the cell number change is -38.6%. In addition, under setting [1], the concentration at half-maximal activity (AC50) is 3.26 µM [falling, full curve]. For the same compound, the concentration at half-maximal activity (AC50) under setting [2] was 3.26 µM [falling, full curve].

As to `O=C(COc1ccccc1)NC1C(=O)N2C(C(=O)O)=C(Cl)CSC12` (stereo not given), the cell number change is 25.7%. Besides, under setting [2], the concentration at half-maximal activity (AC50) was 29.1 µM [rising, single point].

Consider `Cc1ccc2nc(NC(=O)C3CCN(c4ncnc5sc(C)c(C)c45)CC3)sc2c1`, for which the cell number change stood at 30.5%. In addition, under setting [1], the concentration at half-maximal activity (AC50) was 11.6 µM [rising, partial curve, poor fit]. For the same compound, the half-maximal activity concentration (AC50) under setting [2] was 7.31 µM [rising, partial curve, poor fit].
